The results are deposited in PubChem (AID1159506; NCATS, 2015).

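Luminescence from an EWS-FLI1 target-promoter (NR0B1) reporter, set against a CMV-promoter reporter, two days after silencing single genes in TC32 Ewing sarcoma cells. Each siRNA was applied at 20 nM. A z-score of the log NR0B1-over-CMV signal, less the median of siRNAs with the same seed; more negative means a stronger specific loss of the NR0B1 reporter.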

This is part of the screen; most of the strongest results are not listed here. Sequences are the guide (antisense) strand, without overhang.

| # | strand | gene | seed-corrected z-score |
|---|---|---|---|
| 1 | `UAUUGUAGAAUGGGCCUGG` | PEAR1 | -1.213 |
| 2 | `AAAGGAGAUGGAUCGAAAG` | TMEM253 | -0.4176 |
| 3 | `AAAUAUACAACCCUCUUGC` | DUSP28 | 0.2666 |
| 4 | `AACCGCAUUAGCUCAAACC` | STON2 | -1.006 |
| 5 | `UAGGUAGGCAUUGCUCACC` | CYB561D2 | 0.5975 |
| 6 | `AUUGUCUGAAGACAUGAGC` | C15orf53 | -0.1488 |
| 7 | `UAAGUUCUCAUCUAAACAC` | COA6 | -0.8607 |
| 8 | `AAGCGAUCACUAACCUUCC` | EXTL1 | 1.139 |
| 9 | `UUUCCGGUAACAACAGCAG` | RPGR | -0.6385 |
| 10 | `AGAAUUAACACGUAAAGUC` | HNRNPA0 | 0.1076 |
| 11 | `UCAAUAUCCUCACAGAUGC` | FBN3 | 0.0454 |
| 12 | `UCUCAGGCUAGAAACCAGC` | PEX12 | -0.8649 |
| 13 | `UAAUGGAUUAAGAGCAACC` | CFH | 0.7051 |
| 14 | `UAUUCCAUGCGUCCUUUCC` | CBX8 | 0.7583 |
| 15 | `UACUGGUUCCCAAAAUCGC` | PRELID3A | -0.5431 |
| 16 | `UUAUAGUUCAACAUGACGA` | ERBB3 | -0.6154 |
| 17 | `AAAGUGAGGCUGUCUAUGG` | CCDC159 | 0.8989 |
| 18 | `AACAUUCCAGACUUUAUUC` | TRIM7 | 1.303 |
| 19 | `UACUUUGCAAUGCGGAUCC` | RAPH1 | -0.7575 |
| 20 | `UUUCAGGCCGACGAAAGGC` | ZSCAN5D | 0.4815 |
| 21 | `UAAUGGUCUUGUACUUGUC` | SERPINA10 | 0.5912 |
| 22 | `UCAGAUAAAUCUUCGAUCU` | NACA3P | 0.2284 |
| 23 | `UUUGUACAGACUGAAGAUG` | KIR2DL5B | 1.513 |
| 24 | `AAAAAUAACCCAGUACAGG` | KCNJ11 | 0.8774 |
| 25 | `UUAGUCUUUUCAAAGAAUG` | C17orf77 | 0.5735 |
| 26 | `UUCCGGAUCAUAUCCUGCU` | SEC14L4 | -0.1072 |
| 27 | `AGCUGUACUAGAGUUACGG` | CREB1 | 0.001563 |
| 28 | `UCUUGUAAAGGUAAAAUAG` | ALDH1A2 | -0.2535 |
| 29 | `AGAGAUUCGAGUCAUAGCC` | FRS2 | 0.227 |
| 30 | `UUCGAGAGUAGAUUUCAUC` | ZNF615 | 0.2433 |
| 31 | `UUUGAGUCCAGUCGCAAUC` | PXDN | -0.2503 |
| 32 | `UUUGUAUUAAUGAUUCUUG` | CCL2 | -0.1625 |
| 33 | `UCAUUGCCUAUAAAUCCCG` | RNASEH1 | 0.9212 |
| 34 | `UUCUUUACCAAAUCAAUAG` | PAXBP1 | -0.7033 |
| 35 | `AAUCGAGCAACAACUCUGG` | USP19 | -0.06962 |
| 36 | `UCUGGUAGAAUCCUGACUC` | PCDHGA12 | -0.05248 |
| 37 | `UUUCGAAACAUGGAAGAGG` | YY1AP1 | 0.5771 |
| 38 | `UUUGAUUGCUCCUUUAAGG` | CDK7 | 0.249 |
| 39 | `UAGGCUGUAGACAUCGUCC` | SIN3B | -0.499 |
| 40 | `UACUUUCCCUUAAAUAUUG` | IRF9 | -0.7683 |
| 41 | `AUUCUGGUAAUGAACUUCC` | PLCZ1 | 0.5648 |
| 42 | `AUAGUCCCAAUCCUUGAGG` | SLC22A17 | 1.231 |
| 43 | `UCGAGGGAAACUGUUGAGG` | FER1L6 | -0.534 |
| 44 | `UACACGUUGACCUUGAAGG` | KCNH3 | -0.6026 |